{"source": "patent US20220395477A1", "about": "“COMPOSITIONS AND METHODS FOR PREVENTING AND TREATING RESPIRATORY SYNCYTIAL VIRUS INFECTION” (priority 2019, published 2022)", "test_system": "RSV Line 19 (rA2-KL19F)", "assay": "RFP (mKate2)-expressing RSV infection of A549 cells pretreated with SCFAs 24 hours before infection (RFP/DAPI)", "format": "cell-based, Human Respiratory Syncytial Virus", "details": "single SCFA 100 to 300 μM, 3 MOI, imaged after 48 hours", "description": "Images taken after 48 Hrs.\nCells were infected at 3 MOI of RSV Line 19 (rA2-KL19F) expressing a red fluorescent marker, mKate2, as well as the F protein from the mucogenic clinical strain, and media was replaced with the appropriate SCFAs that was previously used in cultured. After 48 hours, the cells were stained with NucBlue (life technologies) and imaged using a Keyence fluorescence microscope (FIGS. 4A-4B).", "note": "At least one compound was matched to its structure with a doubt left."}
{"smiles": "CCCC(=O)O", "note": "[butyrate]", "values": [{"measurement": "expression of RFP-MKate (RFP/DAPI)", "result": "reduces the expression of RFP-MKate"}]}
